Sequences of proteins named here, by UniProt entry; tags and fusion partners are left off.
UniProt Q8TDY4: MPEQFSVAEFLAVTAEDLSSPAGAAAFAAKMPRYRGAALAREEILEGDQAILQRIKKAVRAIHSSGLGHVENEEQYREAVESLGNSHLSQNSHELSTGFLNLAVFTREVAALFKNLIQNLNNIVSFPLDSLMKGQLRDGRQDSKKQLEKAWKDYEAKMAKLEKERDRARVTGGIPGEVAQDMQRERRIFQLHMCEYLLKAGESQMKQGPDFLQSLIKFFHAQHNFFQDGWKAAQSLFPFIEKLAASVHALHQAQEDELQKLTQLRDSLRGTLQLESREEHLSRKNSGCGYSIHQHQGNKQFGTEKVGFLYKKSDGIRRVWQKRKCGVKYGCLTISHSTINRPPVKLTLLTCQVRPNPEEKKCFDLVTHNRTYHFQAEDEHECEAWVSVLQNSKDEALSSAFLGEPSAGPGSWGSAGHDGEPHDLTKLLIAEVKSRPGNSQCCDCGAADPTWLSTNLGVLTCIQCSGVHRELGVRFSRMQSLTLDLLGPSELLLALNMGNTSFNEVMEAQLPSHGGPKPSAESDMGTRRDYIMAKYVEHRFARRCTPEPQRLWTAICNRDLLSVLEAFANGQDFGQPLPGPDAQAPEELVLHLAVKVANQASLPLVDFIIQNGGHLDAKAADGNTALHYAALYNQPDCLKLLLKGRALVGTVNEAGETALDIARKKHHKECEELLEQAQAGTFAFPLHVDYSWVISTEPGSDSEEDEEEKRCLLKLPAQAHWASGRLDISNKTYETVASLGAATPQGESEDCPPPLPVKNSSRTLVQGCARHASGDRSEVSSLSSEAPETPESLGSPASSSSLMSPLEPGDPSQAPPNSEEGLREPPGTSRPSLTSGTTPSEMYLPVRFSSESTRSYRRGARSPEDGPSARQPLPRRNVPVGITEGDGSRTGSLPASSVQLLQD
UniProt P15311: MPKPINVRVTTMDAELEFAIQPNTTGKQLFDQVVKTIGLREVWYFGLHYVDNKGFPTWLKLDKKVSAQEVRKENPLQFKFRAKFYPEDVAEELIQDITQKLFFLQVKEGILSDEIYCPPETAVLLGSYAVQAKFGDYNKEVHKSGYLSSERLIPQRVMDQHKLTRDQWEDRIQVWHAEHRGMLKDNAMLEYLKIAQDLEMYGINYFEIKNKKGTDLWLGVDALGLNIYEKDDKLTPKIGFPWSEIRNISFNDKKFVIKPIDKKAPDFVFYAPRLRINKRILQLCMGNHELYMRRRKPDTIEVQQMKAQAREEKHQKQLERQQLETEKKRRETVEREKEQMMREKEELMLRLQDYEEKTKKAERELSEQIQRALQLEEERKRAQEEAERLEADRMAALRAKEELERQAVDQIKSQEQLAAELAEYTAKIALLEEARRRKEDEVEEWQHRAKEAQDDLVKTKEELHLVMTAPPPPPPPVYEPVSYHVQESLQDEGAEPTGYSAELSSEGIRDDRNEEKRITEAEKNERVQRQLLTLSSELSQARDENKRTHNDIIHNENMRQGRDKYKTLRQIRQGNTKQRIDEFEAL

According to PMC12570880:

Molecular target: ACAP4 (endogenous, HeLa cells) (human (endogenous in HeLa)) (UniProt Q8TDY4)
Test: affinity purification with mass spectrometry; anti-ACAP4 antibody covalently coupled to an affinity matrix; HeLa cell extracts; elution with or without 0.1% SDS; SDS-PAGE, CBB staining, in-gel trypsin digestion of the bands

ezrin (endogenous, HeLa cells) (from UniProt P15311 1-586)
binding: binds

These are yes or no findings as the source states them, for the method shown. Binding seen in cells or lysates may run through a third protein. These calls come from enrichment with a bait or labelling near it, and not all partners need be listed.
